Assay results published in US20050227918A1, “Method for assaying susceptibility to cancer therapy in a subject by assaying for tumors of P53” (priority 2004, published 2005).
Some of these results come from one statement about several compounds together.

Tested on: p73
Test: Inhibition of p73 dependent apoptosis by p53 mutants in transiently transfected Saos-2 cells
Assay type: cell-based
Conditions: Saos-2 transfected with p73α (10 μg) and p53 mutant (20 μg), 72P or 72R; 24 hours

Row | Substance | inhibition of p73 dependent apoptosis
1 | 173L: p53 mutant expressed from plasmid with either 72P or 72R | at least 50%
2 | 176Y: p53 mutant expressed from plasmid with either 72P or 72R | at least 50%
3 | 179R: p53 mutant expressed from plasmid with either 72P or 72R | at least 50%
4 | 179Y: p53 mutant expressed from plasmid with either 72P or 72R | at least 50%
5 | 220C: p53 mutant expressed from plasmid with either 72P or 72R | at least 50%
6 | 242Y: p53 mutant expressed from plasmid with either 72P or 72R | at least 50%
7 | 245D: p53 mutant expressed from plasmid with either 72P or 72R | at least 50%
8 | 245S: p53 mutant expressed from plasmid with either 72P or 72R | at least 50%
9 | 248W: p53 mutant expressed from plasmid with either 72P or 72R | at least 50%
10 | 252Y: p53 mutant expressed from plasmid with either 72P or 72R | at least 50%
11 | 273C: p53 mutant expressed from plasmid with either 72P or 72R | at least 50%
